The results in this text go back to article PMC5366180.

Protein sequences, listed by entry. Tags and fused reporters are not part of them. Residues count along the entry.
UniProt Q13308, 31-1070: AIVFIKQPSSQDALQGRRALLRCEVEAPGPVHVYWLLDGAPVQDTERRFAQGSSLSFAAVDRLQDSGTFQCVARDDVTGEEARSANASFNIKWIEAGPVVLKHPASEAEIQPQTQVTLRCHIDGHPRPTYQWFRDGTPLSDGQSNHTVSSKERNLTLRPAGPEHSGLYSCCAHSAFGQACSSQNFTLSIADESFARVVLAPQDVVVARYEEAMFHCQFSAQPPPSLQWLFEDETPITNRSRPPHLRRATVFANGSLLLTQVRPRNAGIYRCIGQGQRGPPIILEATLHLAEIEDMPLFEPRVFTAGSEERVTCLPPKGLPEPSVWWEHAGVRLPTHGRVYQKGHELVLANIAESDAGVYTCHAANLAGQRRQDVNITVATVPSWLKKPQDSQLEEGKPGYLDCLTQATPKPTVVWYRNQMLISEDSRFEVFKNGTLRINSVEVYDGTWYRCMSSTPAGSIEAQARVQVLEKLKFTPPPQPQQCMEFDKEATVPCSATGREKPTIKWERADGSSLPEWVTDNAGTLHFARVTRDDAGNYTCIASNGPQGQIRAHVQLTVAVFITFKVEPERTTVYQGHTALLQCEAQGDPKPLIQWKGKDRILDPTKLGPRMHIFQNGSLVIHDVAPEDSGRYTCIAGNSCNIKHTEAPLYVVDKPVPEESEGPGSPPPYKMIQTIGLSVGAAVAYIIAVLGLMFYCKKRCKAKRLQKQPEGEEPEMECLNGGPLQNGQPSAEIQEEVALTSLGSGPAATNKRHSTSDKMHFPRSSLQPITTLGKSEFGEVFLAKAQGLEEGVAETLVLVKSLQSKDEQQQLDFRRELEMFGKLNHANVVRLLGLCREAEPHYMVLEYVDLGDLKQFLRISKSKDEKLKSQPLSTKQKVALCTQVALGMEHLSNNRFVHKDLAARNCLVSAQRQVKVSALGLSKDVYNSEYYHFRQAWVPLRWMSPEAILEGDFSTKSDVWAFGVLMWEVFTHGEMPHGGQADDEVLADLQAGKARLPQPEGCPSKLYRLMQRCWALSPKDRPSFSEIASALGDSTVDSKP

The exact form of at least one protein or probe is not confirmed. Results from cells or extracts need not show a direct contact.

The target in this series is protein tyrosine kinase-7 (PTK7) (UniProt Q13308). The series is described as follows: AFM topography and recognition imaging (TREC). The note with it: 325 ± 12 PTK7 sites per um2, recognition abolished by free sgc8c; 5' NH2 or 5' SH; Aptamer tips prepared and stored in PBS; fixed Jurkat T-cells on Cell-Tak glass; pulling speeds 500-24000 nm/s; measurement buffer; protein on the cell surface; label: 5' PEG linker to AFM tip; single-stranded DNA.

“ATCTAACTGCTGCGCCGCGAAAATACTGTACGGTTAGA [sgc8c (tip-tethered)]”: the binding result is “binds”.
